# Measured values: the supplement of paper PMC7858590
# Where “and” joins values, the source holds several entries; their conditions need not be identical. Equal values may be shown once. ± gives the standard deviation of the averaged measurements. The list shows a part of the results. Single values are uncertain here, since repeats match poorly.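 Macrophages from blood monocytes of four pooled healthy donors, grown with M-CSF, were M1-like and treated with compounds that shifted resting macrophages M2-like in an initial screen. Z-score: t-test of cell eccentricity (~1000 cells/well) versus same-row DMSO wells. Reprogramming means passing the M2 cutoff of +6 from standard cytokine controls (M1 cutoff −4).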
# Tested on: human monocyte-derived macrophages (polarized)
# Test: cell shape (eccentricity) Z-score vs DMSO control; macrophage state: M1-polarized (IFNg + TNFa), cytokines removed before treatment; higher = more elongated, M2-like morphology
# Settings: 24 h
SMILES,cell shape (Z-score) (5 µM),cell shape (Z-score) (10 µM)
CCCC(=O)Nc1ncnc2c1ncn2[C@@H]1O[C@@H]2COP(=O)(O)O[C@H]2[C@H]1OC(=O)CCC,-2.43 ± 3.8,-9.02 ± 6.3
c1ccc(-c2nnc(N3CCOCC3)nc2-c2ccccc2)cc1,4.56 ± 7.8,5.71 ± 10
COc1ccc(-c2cc(=O)c3c(O)cc(OC)c(OC)c3o2)c(OC)c1,-2.14 ± 6.4,-1.04 ± 4.7
COc1cc2c(cc1-c1c(C)noc1C)ncc1[nH]c(=O)n([C@H](C)c3ccccn3)c12,-1.76 ± 5.9,1.11 ± 4.1
CC(=Cc1ccc(C(=O)O)cc1)c1ccc2c(c1)C(C)(C)CCC2(C)C,1.74 ± 6.3,-1.04 ± 4.1
COc1cc2nccc(Oc3ccc(NC(=O)Nc4cc(C)on4)c(Cl)c3)c2cc1OC,8.31 ± 7,9.45 ± 6
O=C(O)c1ccc2c(c1)nc(Nc1cccc(Cl)c1)c1ccncc12,2.83 ± 3.9,3.03 ± 6
CC(C)(C)c1nc(-c2cccc(NS(=O)(=O)c3c(F)cccc3F)c2F)c(-c2ccnc(N)n2)s1,-2.82 ± 4.9,-4.2 ± 6
CC1(C)C(=O)C=CC2(C)C1C=CC1(C)C2CCC2(C)C(c3ccoc3)OC(=O)C3OC312 (stereo not given),0.464 ± 4.7,-5.16 ± 5
CCC[C@H](N[C@@H](C)C(=O)N1[C@H](C(=O)O)C[C@@H]2CCCC[C@@H]21)C(=O)OCC,-1.36 ± 3.3,0.115 ± 4.6
CC(C)CNc1ccnc(NCc2csc(-c3ccccc3)n2)n1,1.68 ± 6.4,-2.84 ± 2.9
O=C(/C=C/c1ccccc1)c1ccc(O)cc1,3.01,9.03
Clc1ccc(C(Cn2ccnc2)OCc2ccsc2Cl)c(Cl)c1 (stereo not given),3.98 ± 8.3,1.57 ± 5.8
COc1cc(-c2ccc(=O)[nH]n2)ccc1OC(F)F,3.52 ± 10,-0.168 ± 7.4
Cc1nc(Nc2ncc(C(=O)Nc3c(C)cccc3Cl)s2)cc(N2CCN(CCO)CC2)n1,3.92,8.02 ± 0.7
CCCCCCCCCc1ccc(OCCOCCOCCOCCOCCOCCOCCOCCOCCO)cc1,0.38 ± 2.7,1.22 ± 4.7
Cc1cc(Nc2nc(N[C@@H](C)c3ncc(F)cn3)ncc2Cl)[nH]n1,-3.41 ± 6.6,-13.4 ± 5
CC[C@]1(O)C[C@@H]2CN(CCc3c([nH]c4ccccc34)[C@@](C(=O)OC)(c3cc4c(cc3OC)N(C)[C@H]3[C@@](O)(C(=O)OC)[C@H](OC(C)=O)[C@]5(CC)C=CCN6CC[C@]43[C@@H]65)C2)C1,0.382 ± 2.1,-0.0313 ± 0.45
COc1cccc2c1C(=O)c1c(O)c3c(c(O)c1C2=O)C[C@@](O)(C(=O)CO)C[C@@H]3O[C@H]1C[C@H](N)[C@H](O)[C@H](C)O1,7.96,7.68
Clc1ccc(C2(c3ccc(-c4cn[nH]c4)cc3)CCNCC2)cc1,7 ± 5.3,11.2
O=C(Nc1ccncc1)c1cc([N+](=O)[O-])ccc1Cl,-0.292 ± 1.1,2.26 ± 3.4
COc1ccc(-c2cc(=O)c3c(O)cc(O)cc3o2)cc1O,-11.3 ± 10,-0.0502 ± 3.3
CCCCCCN(CCCCCC)C(=O)Cc1c(-c2ccc(F)cc2)[nH]c2ccccc12,2.07 ± 1.3,0.252 ± 1.1
OC[C@H](Cc1ccccc1)Nc1nc(Oc2ccc3c(c2)CCC3)nc2c1ncn2Cc1ccc(-c2ccccc2)cc1,7.87 ± 4.5,6.14
CCn1c(=O)c2c(nc(/C=C/c3ccc(OC)c(OC)c3)n2C)n(CC)c1=O,1.76 ± 0.91,-0.439 ± 0.59
CC(N)C(=O)OC(C)(C)Cc1ccc(Cl)cc1 (stereo not given),-3.12 ± 3.4,3.67 ± 12
O=c1cc(-c2ccccc2F)[nH]c2cc3c(cc12)OCO3,-1.9 ± 2.9,-0.73 ± 0.76

SMILES,cell shape (Z-score) (5 µM),cell shape (Z-score) (10 µM)
C#C[C@]1(O)CC[C@H]2[C@@H]3CCC4=Cc5oncc5C[C@]4(C)[C@H]3CC[C@@]21C,0.587 ± 1.9,4.39 ± 3
O=C(O)C[C@H](O)C[C@H](O)/C=C/c1c(C2CC2)nc2ccccc2c1-c1ccc(F)cc1,2.02 ± 2.4,1.34 ± 1.5
COc1ccc(OC)c(-c2nnc3n2N=C(c2ccc(OC)c(OC)c2)CS3)c1,-2.41 ± 1.9,-3.05 ± 2.3
Oc1cccc(O)c1,2.84 ± 5.3,1.7 ± 3.4
CC1=C(/C=C/C(C)=C/C=C/C(C)=C/C(=O)O)C(C)(C)CCC1,-0.682 ± 3.4,-1.2 ± 2.6
CC(C)(C)OC(=O)Nc1ccc(-c2cc(C(=O)NCCCCCCC(=O)NO)no2)cc1,0.289 ± 0.49,-1.64 ± 2.6
Cc1c(C(=O)Nc2ccc(N3C[C@@H](C)O[C@@H](C)C3)nc2)cccc1-c1ccc(OC(F)(F)F)cc1,3.56,7.08
CCC1(C)CC(=O)NC1=O (stereo not given),-1.52 ± 5.1,-0.54 ± 4.2
COc1c(OC)c2occc2c2oc(=O)ccc12,1.95 ± 0.061,1.3 ± 0.55
C=CC(=O)N1CCC[C@@H](n2nc(-c3ccc(Oc4ccccc4)cc3)c3c(N)ncnc32)C1,6.79 ± 3.9,4.39 ± 2.2
CCOc1cc2ncc(C#N)c(Nc3ccc(OCc4ccccn4)c(Cl)c3)c2cc1NC(=O)/C=C/CN(C)C,0.735 ± 3.2,-0.744 ± 3
C=CCn1c(=O)c2cnc(Nc3ccc(N4CCN(C)CC4)cc3)nc2n1-c1cccc(C(C)(C)O)n1,-1.65 ± 1.5,2.8 ± 4.5
O=C(CCc1ccc(O)cc1)c1c(O)cc(O)cc1O,4.34 ± 6.5,-0.741 ± 5
CC(C)n1cnc2c(NCc3ccccc3)nc(NCCO)nc21,1.42 ± 8,-1.66 ± 5.3
CNC(=O)c1ccccc1Sc1ccc2c(/C=C/c3ccccn3)n[nH]c2c1,9.86 and 6.43,12.6 and 6.21
C[C@@H]1O[C@@H](Oc2cc(O)c3c(=O)c(O[C@@H]4O[C@@H](C)[C@H](O[C@@H]5O[C@@H](C)[C@H](O)[C@@H](O)[C@H]5O)[C@@H](O)[C@H]4O)c(-c4ccc(O)cc4)oc3c2)[C@H](O)[C@H](O)[C@H]1O,1.13 ± 3.9,-2.14 ± 0.8
O=S(=O)(c1cccc2cnccc12)N1CCNCC1,-0.106 ± 0.51,2.77 ± 0.082
O=C1Cc2c([nH]c3ccc([N+](=O)[O-])cc23)-c2ccccc2N1,-3.97 ± 0.04,0.19 ± 1.9
Cn1c([N+](=O)[O-])cnc1COC(N)=O,-0.474 ± 3.6,-0.073 ± 1.8
COc1ccc([C@H]2CNC(=O)C2)cc1OC1CCCC1,-0.396 ± 3.5,-4.31 ± 0.067
c1cc(-c2cnn3cc(-c4ccc(OCCN5CCCCC5)cc4)cnc23)ccn1,1.7 ± 4.5,1.06 ± 2.9
C[C@@]1(C(=O)Nc2ccc(F)nc2)CCCN1c1nc(Nc2cc(C3CC3)n[nH]2)c2cccn2n1,2.23 ± 8.6,-8.53 ± 7.7
CC(C)c1ccccc1Cc1cc(C(=O)Nc2ccc(S(=O)(=O)c3ccccc3C(C)(C)C)cc2)c(O)c(O)c1O,-1.64 ± 3.5,-4.03 ± 0.39
O=C(CCCCCCC(=O)Nc1ccccc1)NO,0.215 ± 0.12,-2.57 ± 4.3
O=C1c2ccccc2-c2n[nH]c3cccc1c23,3.32 ± 9.1,0.0957 ± 10
c1ccc(-c2[nH]ncc2-c2ccnc3ccccc23)nc1,3.91 ± 1.6,2.89 ± 0.88
C[C@@H](Oc1cc(-c2cnn(C3CCNCC3)c2)cnc1N)c1c(Cl)ccc(F)c1Cl,2.65 ± 0.39,-2.06 ± 2.3

# Single records (already shown):
# `c1ccc(-c2nnc(N3CCOCC3)nc2-c2ccccc2)cc1` is entered as cell shape (Z-score) (5 µM): 4.56 ± 7.8; cell shape (Z-score) (10 µM): 5.71 ± 10
# `CC(C)(C)OC(=O)Nc1ccc(-c2cc(C(=O)NCCCCCCC(=O)NO)no2)cc1` is entered as cell shape (Z-score) (5 µM): 0.289 ± 0.49; cell shape (Z-score) (10 µM): -1.64 ± 2.6
# `O=C1Cc2c([nH]c3ccc([N+](=O)[O-])cc23)-c2ccccc2N1` is entered as cell shape (Z-score) (5 µM): -3.97 ± 0.04; cell shape (Z-score) (10 µM): 0.19 ± 1.9
# `CCn1c(=O)c2c(nc(/C=C/c3ccc(OC)c(OC)c3)n2C)n(CC)c1=O` is entered as cell shape (Z-score) (5 µM): 1.76 ± 0.91; cell shape (Z-score) (10 µM): -0.439 ± 0.59

# (listing goes on)

SMILES,cell shape (Z-score) (5 µM),cell shape (Z-score) (10 µM)
CC(C)(C)c1cc(C(=O)/C=C/c2ccc(C(=O)O)cc2)cc(C(C)(C)C)c1,-1.07 ± 2.1,-7.11 ± 4.6
Cc1ccc2c(=O)c3ccccc3n(CCCN)c2c1C,-1.16 ± 5.8,-2.09 ± 2.2
COc1cc(C2OC(c3cc(OC)c(OC)c(OC)c3)C(C)C2C)cc(OC)c1OC (stereo not given),-7.48 ± 9.8,-10.5 ± 9.2
Nc1nc(Nc2ccccc2)nc2c1ncn2C1OC(CO)C(O)C1O (stereo not given),-1.81 ± 6.4,-13.6 ± 9
COc1cc(Nc2ncc(F)c(Nc3ccc4c(n3)NC(=O)C(C)(C)O4)n2)cc(OC)c1OC,3.5 ± 9.6,1 ± 4.6
CC1(C)C[C@@H]1C(=O)N/C(=C\CCCCSC[C@H](N)C(=O)O)C(=O)O,0.938 ± 5.7,-5.72 ± 4
CN(C)CC[C@H](CSc1ccccc1)Nc1ccc(S(=O)(=O)NC(=O)c2ccc(N3CCN(Cc4ccccc4-c4ccc(Cl)cc4)CC3)cc2)cc1[N+](=O)[O-],-0.605 ± 0.048,4.71 ± 2.9
Nc1ncnc2n[nH]c(Nc3ccc(F)cc3)c12,0.777 ± 0.22,1.27 ± 0.84
CN(C)CCC=C1c2ccccc2COc2ccccc21,-0.844 ± 5.8,-1.11 ± 3.1
CCN(CC)C(=S)SSC(=S)N(CC)CC,-0.518 ± 3.6,-4.11 ± 0.88
CN1CCN(CCOc2cc(OC3CCOCC3)c3c(Nc4c(Cl)ccc5c4OCO5)ncnc3c2)CC1,2.1 ± 1.4,3.08 ± 1.4
CC[C@H]1OC(=O)[C@H](C)[C@@H](O[C@H]2C[C@@](C)(OC)[C@@H](O)[C@H](C)O2)[C@H](C)[C@@H](O[C@@H]2O[C@H](C)C[C@H](N(C)C)[C@H]2O)[C@](C)(O)C[C@@H](C)C(=O)[C@H](C)[C@@H](O)[C@]1(C)O,0.289 ± 3.6,0.558 ± 0.073
C=C[C@@]1(C)CC(=O)[C@]2(O)[C@@]3(C)[C@@H](O)CCC(C)(C)[C@@H]3[C@H](O)[C@H](OC(C)=O)[C@@]2(C)O1,-2.08 ± 6.7,-9.07 ± 4.7
O=c1ncccn1[C@@H]1O[C@H](CO)[C@@H](O)[C@H]1O,-7.9 ± 6.2,-0.215 ± 3.3
Cc1c(NC(=O)c2cccnc2)c(=O)n(-c2ccccc2)n1C,4.96 ± 11,2.8 ± 8
CS(=O)(=O)c1cccc(CNc2nc(Nc3ccc4c(c3)CCC(=O)N4)ncc2C(F)(F)F)c1,-2 ± 4.1,-3.52 ± 5.2
COc1c(OC)c(O)c2c(=O)c(O)c(-c3ccccc3)oc2c1OC,2.08 ± 7.1,-0.515 ± 6
COc1ccc(-c2oc3ccccc3c(=O)c2O)cc1OC,0.0634 ± 2,2.59 ± 6.6
CC1=C(/C=C/C(C)=C/C=C/C(C)=C/CO)C(C)(C)CCC1,-8.23 ± 12,-5.65 ± 13
Cc1onc(-c2ccccc2Cl)c1C(=O)N[C@@H]1C(=O)N2[C@@H]1SC(C)(C)[C@@H]2C(=O)O,3.93 ± 7.2,-1.2 ± 3.9
COc1cc(C(=O)N2CCC(N3CCN(C)CC3)CC2)ccc1Nc1ncc2c(n1)N(C)c1ccccc1C(=O)N2C,-1.48 ± 6.7,-2.1 ± 7.5
CCCCCc1c2c(cc(O)c1C(=O)O)OC(=O)c1c(cc(OC)cc1C(=O)CCCC)O2,-0.984 ± 2.9,-3.58 ± 6.4
N#CCNC(=O)c1ccc(-c2ccnc(Nc3ccc(N4CCOCC4)cc3)n2)cc1,4.33 ± 6,-2.57 ± 0.033
Cn1cncc1[C@@](N)(c1ccc(Cl)cc1)c1ccc2c(c1)c(-c1cccc(Cl)c1)cc(=O)n2C,0.662 ± 0.2,1.41 ± 4.6
COc1nccnc1NS(=O)(=O)c1ccc(NC(=O)/C=C/c2ccc([N+](=O)[O-])s2)cc1,-3.81 ± 4.1,-10.9 ± 10
O=C(O[C@@H]1Cc2c(O)cc(O)cc2O[C@@H]1c1cc(O)c(O)c(O)c1)c1cc(O)c(O)c(O)c1,1.14 ± 6.9,0.218 ± 3.9
